No constants are given. Whether binding was seen depends on the method and setting. In cells and extracts the contact can be indirect. Some binding calls cover weakened binding; strength is not graded here. For part of these data: Sequences can lack the tags named with a protein. Each block holds one substance with its values, some of them ahead of it.
Legend:
Assay in all cases: co-IP; lysates of transfected 293T cells incubated with anti-FLAG M2 magnetic beads or anti-V5 agarose beads at 4 °C for 4 h or overnight; washed three times with NP-40 lysis buffer (50 mM Tris-HCl pH 8.0, 150 mM NaCl, 1% NP-40, 0.5 mM DTT) and once with PBS; Western blot with anti-HA, anti-V5 or …
V5-TAZ (human) = V5-TAZ (human) (UniProt Q9GZV5)
[1] = molecular target: V5-tagged MPP7 WT (pCDNA3-V5-Mpp7, human cDNA) (human) (UniProt Q5T2T1)
[2] = molecular target: FLAG-MPP7 (pCDNA3-Flag-Mpp7) (human) (UniProt Q5T2T1)

Amino acid sequences for entries named in this document (tags omitted). A change or cut given only in a name is not applied to a line headed by its entry.
UniProt Q9GZV5: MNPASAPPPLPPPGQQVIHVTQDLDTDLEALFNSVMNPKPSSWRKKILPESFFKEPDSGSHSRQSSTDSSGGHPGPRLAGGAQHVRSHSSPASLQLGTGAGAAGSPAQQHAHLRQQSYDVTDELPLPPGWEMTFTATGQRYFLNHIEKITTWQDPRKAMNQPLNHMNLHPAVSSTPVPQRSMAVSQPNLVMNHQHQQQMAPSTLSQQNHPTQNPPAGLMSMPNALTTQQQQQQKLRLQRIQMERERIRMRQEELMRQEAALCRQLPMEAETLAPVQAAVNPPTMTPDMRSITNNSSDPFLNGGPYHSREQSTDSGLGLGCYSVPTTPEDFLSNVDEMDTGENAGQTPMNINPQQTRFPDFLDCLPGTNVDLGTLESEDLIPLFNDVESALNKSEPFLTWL
UniProt P25490: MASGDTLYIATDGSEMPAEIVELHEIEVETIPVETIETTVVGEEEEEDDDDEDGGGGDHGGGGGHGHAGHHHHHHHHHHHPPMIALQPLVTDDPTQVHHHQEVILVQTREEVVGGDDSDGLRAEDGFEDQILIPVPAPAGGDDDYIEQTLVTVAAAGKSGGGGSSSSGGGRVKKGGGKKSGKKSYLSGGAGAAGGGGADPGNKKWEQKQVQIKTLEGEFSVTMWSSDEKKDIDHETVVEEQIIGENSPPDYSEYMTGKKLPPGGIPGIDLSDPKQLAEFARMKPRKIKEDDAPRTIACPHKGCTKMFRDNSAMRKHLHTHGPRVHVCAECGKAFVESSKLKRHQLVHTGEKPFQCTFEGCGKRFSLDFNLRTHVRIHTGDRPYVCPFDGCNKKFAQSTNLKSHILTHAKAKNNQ

- binding (V5-TAZ (human)): binds
Substance: HA-YY1 (human cDNA) (from UniProt P25490 1-414)

- binding [1]: binds
Substance: HA-tagged AMOT WT (HA-Amot p130, human cDNA) (from UniProt Q4VCS5-1 1-1084)

- binding [2]: no binding
Substance: TAZ WWm (W152A, P155A) (from UniProt Q9GZV5 1-400)

From PMC11624273
